PubChem BioAssay AID1671195 | Yale University | 2021
Purpose: 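Regulators of LDL receptor activity judged by labelled LDL uptake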 (primary screen). System: human Huh7 hepatoma cells. Knock-down reagent: siRNA pool against human genes, 18 nM. Time to read-out: about 2 to 2.5 days of knockdown, then 8 h LDL uptake. Treatment: DiI-labelled LDL at 30 µg/ml for 8 h, in lipoprotein-deficient serum medium. Measured: 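Per-cell DiI-LDL intensity by automated imaging; well means scaled to the plate median and given as a robust z-score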. Reading the numbers: robust z-score: higher = more LDL uptake after knockdown. Hit rule: 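Active when two or more replicates show a robust z-score above 2 or below -2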.
The whole screen tested about 22,000 reagents; shown is a part drawn at random. About 1,510 of them (6.9%) count as active. 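Active includes knockdowns raising or lowering LDL uptake; positive z-scores mean more uptake, negative mean less.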 A number with no mark means an inactive call.

Knock-down of DCHS2 gave: robust z-score, replicate 1 = -0.185; robust z-score, replicate 2 = -0.329; robust z-score, replicate 3 = 0.0266.
LY6G6E scored robust z-score, replicate 1 = -0.483; robust z-score, replicate 2 = 0.0842; robust z-score, replicate 3 = -0.887.
With knock-down of TSPO the results were robust z-score, replicate 1 = 0.396; robust z-score, replicate 2 = 0.271; robust z-score, replicate 3 = 0.545.
Silencing of PELI3 resulted in: robust z-score, replicate 1 = -0.233; robust z-score, replicate 2 = -0.89; robust z-score, replicate 3 = -0.455.
Silencing of PCDHGB4 resulted in: robust z-score, replicate 1 = -0.153; robust z-score, replicate 2 = 0.115; robust z-score, replicate 3 = -0.0999.
Knock-down of AFAP1 resulted in: robust z-score, replicate 1 = -0.408; robust z-score, replicate 2 = -0.802; robust z-score, replicate 3 = -1.23.
With knock-down of FGF9, the record shows robust z-score, replicate 1 = -0.281; robust z-score, replicate 2 = -1.08; robust z-score, replicate 3 = -0.89.
Silencing of CIT came out at: robust z-score, replicate 1 = -2.33 (active); robust z-score, replicate 2 = -2.18; robust z-score, replicate 3 = -1.75.
With knock-down of SPTAN1, the record shows robust z-score, replicate 1 = 0.972 (active); robust z-score, replicate 2 = 2.8; robust z-score, replicate 3 = 2.95.
Against SERPINB7, the values are robust z-score, replicate 1 = -0.486; robust z-score, replicate 2 = -0.282; robust z-score, replicate 3 = 1.72.
CXorf66 showed robust z-score, replicate 1 = 0.705; robust z-score, replicate 2 = 0.259; robust z-score, replicate 3 = 0.326.
With knock-down of ACSS3, the record shows robust z-score, replicate 1 = 0.513; robust z-score, replicate 2 = 0.113; robust z-score, replicate 3 = 0.0249.

A stretch from the list above, as a working copy:
CIT → robust z-score, replicate 1 = -2.33 (active); robust z-score, replicate 2 = -2.18; robust z-score, replicate 3 = -1.75
SPTAN1 → robust z-score, replicate 1 = 0.972 (active); robust z-score, replicate 2 = 2.8; robust z-score, replicate 3 = 2.95
SERPINB7 → robust z-score, replicate 1 = -0.486; robust z-score, replicate 2 = -0.282; robust z-score, replicate 3 = 1.72

Further reagents follow.
After knock-down of ZCCHC24, the screen gave robust z-score, replicate 1 = 0.769; robust z-score, replicate 2 = 1.02; robust z-score, replicate 3 = 1.38.
For RPTOR, the values are robust z-score, replicate 1 = -0.331; robust z-score, replicate 2 = 1.58; robust z-score, replicate 3 = 2.09.
Knock-down of TIMP4 resulted in: robust z-score, replicate 1 = -0.296; robust z-score, replicate 2 = 0.0166; robust z-score, replicate 3 = -0.362.
Against SBF2, the values are robust z-score, replicate 1 = -1.29; robust z-score, replicate 2 = -1.36; robust z-score, replicate 3 = -1.54.
SLC5A10 scored robust z-score, replicate 1 = -0.867; robust z-score, replicate 2 = -1.21; robust z-score, replicate 3 = -0.862.
Against STK38L, the entry reads robust z-score, replicate 1 = -0.232; robust z-score, replicate 2 = 0.35; robust z-score, replicate 3 = 0.456.
Against ZSCAN4, the entry reads robust z-score, replicate 1 = 1.45; robust z-score, replicate 2 = 0.904; robust z-score, replicate 3 = 2.5.
After knock-down of GDF15, the record shows robust z-score, replicate 1 = -0.324; robust z-score, replicate 2 = 1.41; robust z-score, replicate 3 = 0.529.
DCUN1D4 showed robust z-score, replicate 1 = 1.1; robust z-score, replicate 2 = -1.35; robust z-score, replicate 3 = 0.844.
Silencing of OIT3 gave: robust z-score, replicate 1 = 0.179; robust z-score, replicate 2 = -0.297; robust z-score, replicate 3 = 0.518.
After knock-down of ACTL10, the record shows robust z-score, replicate 1 = 0.812; robust z-score, replicate 2 = 0.641; robust z-score, replicate 3 = 0.762.
After knock-down of HOXD1, the screen gave robust z-score, replicate 1 = -0.561; robust z-score, replicate 2 = -0.287; robust z-score, replicate 3 = -0.493.
